This passage reports survivor count and T/C results from PubChem BioAssay AID248 (DTP/NCI, 2004).

The assay has as its system L1210 leukemia ip in BDF1 mice, survival T/C. Put plainly: NCI In Vivo Anticancer Drug Screen. Data for tumor model L1210 Leukemia (intraperitoneal) in B6D2F1 (BDF1) mice. The settings on record: T/C endpoint: mean survival time, higher T/C = longer survival.
[1] abbreviates: dose: 400.0 mg/kg/injection, schedule: Q01DX009 (ip), vehicle: saline with Tween-80.

The list is a part of this screen's results and no random one: it gathers tests that were run many times, whatever their T/C, doses with no T/C, and many T/C values between a quarter and a half above the control. Other doses and runs of a compound stand elsewhere. T/C gives the treated animals as a percentage of the vehicle group. Some entries give survivors of the animals treated and no T/C: the source files T/C as zero there, which appears to mark a toxic dose or a test without result, not a measured value. Some survivor counts are full or nearly so, which does not show that the dose was tolerated: the source hardly ever lists a survival T/C far under the control, and the zero likely stands for such cases as well. Survivors were counted at the toxicity check, usually on the fifth day, unless a day is given; later deaths do not show. Schedule codes are those of the source, taken here to give the interval after Q, in days (D) or hours (H), and the number of doses after X. Some entries were tested several times; the values are given in rising order. For survival time, this PubChem deposit counts one and a half times the control or more as active, and values a quarter to a half above the control carry no call in these data; other NCI protocols may use other cut-offs. Some T/C values carry the count of animals alive at the toxicity check (mostly the fifth day); where none is given, no animal had died by that day.

With `CCCCCC1SC1CC1SC1CCCCCCCC(=O)N1CCOCC1` (stereo not drawn), the survivor count by setting is: (dose: 200.0 mg/kg/injection, schedule: Q01DX009 (ip), vehicle: saline with Tween-80) 3 of 6; under setting [1], 2 of 6.
As for `O=C1C2C(C(=O)N1c1ccccc1)C1c3ccccc3C2C2CCCCN21` (stereo not drawn), the survivor count is, setting by setting: (dose: 200.0 mg/kg/injection, schedule: Q04DX003 (ip), vehicle: Klucel (hydroxypropylcellulose) (HPC)) 1 of 6; (dose: 400.0 mg/kg/injection, schedule: Q04DX003 (ip), vehicle: Klucel (hydroxypropylcellulose) (HPC)) 1 of 6.
In the case of `S=c1nc2ccccn2c(=S)n1-c1ccccn1`, the survivor count (dose: 400.0 mg/kg/injection, schedule: Q01DX001 (ip), vehicle: saline with Tween-80) is on record as 0 of 6.
With `Nc1ccc2cc3ccc(N)cc3nc2c1`, the survivor count by setting is: (dose: 100.0 mg/kg/injection, schedule: Q01DX001 (ip), vehicle: saline) 2 of 4; (dose: 200.0 mg/kg/injection, schedule: Q01DX001 (ip), vehicle: saline) 0 of 4; (dose: 400.0 mg/kg/injection, schedule: Q01DX001 (ip), vehicle: saline) 0 of 4.
For `CCOc1c[n+](C)c(/C=C/c2ccccc2)s1`, the survivor count reads like this: (dose: 50.0 mg/kg/injection, schedule: Q01DX001 (ip), vehicle: carboxymethylcellulose (CMC)) 0 of 4; (dose: 80.0 mg/kg/injection, schedule: Q01DX001 (ip), vehicle: carboxymethylcellulose (CMC)) 0 of 4; (dose: 100.0 mg/kg/injection, schedule: Q01DX001 (ip), vehicle: carboxymethylcellulose (CMC)) 2 of 4; (dose: 200.0 mg/kg/injection, schedule: Q01DX001 (ip), vehicle: carboxymethylcellulose (CMC)) 0 of 4; (dose: 400.0 mg/kg/injection, schedule: Q01DX001 (ip), vehicle: carboxymethylcellulose (CMC)) 0 of 4.
On to `O=[N+]([O-])/C(N=Nc1ccc2ccccc2c1)=N\Nc1ccc2ccccc2c1`, for which the survivor count runs as follows: (dose: 75.0 mg/kg/injection, schedule: Q01DX001 (ip), vehicle: acetone) 6 of 6; (dose: 150.0 mg/kg/injection, schedule: Q01DX001 (ip), vehicle: acetone) 5 of 5 and 6 of 6; (dose: 300.0 mg/kg/injection, schedule: Q01DX001 (ip), vehicle: acetone) 6 of 6.
As for `CCC(CCl)NC1CCCCC1` (stereo not drawn), the survivor count (dose: 300.0 mg/kg/injection, schedule: Q01DX001 (ip), vehicle: saline) is on record as 1 of 6.
Take `CC1(C)CN1Sc1ccc([N+](=O)[O-])cc1` (stereo not drawn): the survivor count is, setting by setting: (dose: 200.0 mg/kg/injection, schedule: Q04DX002 (ip), vehicle: Klucel (hydroxypropylcellulose) (HPC)) 1 of 3; (dose: 400.0 mg/kg/injection, schedule: Q04DX002 (ip), vehicle: Klucel (hydroxypropylcellulose) (HPC)) 0 of 3.
As to `COc1cc(C(=O)NOCc2cc3c(cc2Cl)OCO3)cc(OC)c1OC`, the survivor count (dose: 100.0 mg/kg/injection, schedule: Q04DX003 (ip), vehicle: saline sonified) is on record as 6 of 6.
As for `Nc1nc(SCC(=O)c2ccccc2)c2[nH]cnc2n1`, the T/C was 141 % of control (dose: 100.0 mg/kg/injection, schedule: Q01DX009 (ip), vehicle: saline with Tween-80) and 127 % of control [5 of 6 alive] under setting [1].
Consider `Cc1ccc(C(=O)C(Br)C(Br)c2ccccc2)cc1` (stereo not drawn), for which, under setting [1], the survivor count is 2 of 6.
